Data from patent publication US20160052996A1.
These are yes or no findings as the source states them, for the method shown. Binding can be weak; no strength is given.

How the values were obtained:
[1] = molecular target: BKV VP1 VLP (BK virus (BKV), AS strain); assay: direct ELISA, antigens coated at 1 µg/mL; bar groups labelled 100 nM, 20 nM, 4 nM, 0.8 nM
[2] = molecular target: BKV VP1 (BK virus (BKV), AS strain); assay: as above
[3] = molecular target: BKV VP1 (BK virus (BKV), AS strain); assay: direct ELISA
[4] = molecular target: BKV VP1 (BK virus (BKV), AS strain); assay: direct ELISA, cross-reactivity panel; bar groups labelled 100 nM, 20 nM, 4 nM, 0.8 nM

Measured: binding

B1: NI-307.25G10 (antibody, V domains shown)
VH: EVQLVESGGGLVQPGGSLRLSCVASGIIFKDYDFHWVRQVKEKGLEWVSAIGTAGDPYYAASVKGRFTVSRENGKNSVYLRMNNVGAGDTALYYCTSGNYFDRGSFRPSAFDMWGQGTMVTVSS
VL: EIVLTQSPGTLSLSPGERATLSCWASQSVSSNYLAWYQHKPGQAPRLLIFRASRRATDIPERFSAGGSGTDFTLTISRLEAEDSAVYYCQEYGSAPPASITFGQGTRLEIK
binds: all assays above

B2: NI-307.26E10 (antibody, V domains shown)
VH: EVQLVESGGGLVLPGGSLRLSCAVSGFTVRNEYMRWARQAPGRGLEWVSVIYRDGQTHHADTVKGRFDVSKDTSKNTMYLQMHNLRVDDTAIYYCARGHYGPWGQGTLVTVSS
VL: DIQMTQSPSTLPASVGDRVTITCRASQSINNWLAWYQQKPGKAPNLLIYDASNLETGVPSRFSGSGSGTEFTLTISSLQPDDFATYYCQQYNSHSHTWTFGQGTKVEIK
binds: all assays above
